Source: PubChem BioAssay AID1224830 (NIAID, 2016)

- Purpose: 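Host factors that control LPS-induced TNF expression in human macrophages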 (primary screen)
- System: human THP-1 monocytic leukaemia cells, TNF dual-luciferase reporter clone, PMA-differentiated to macrophage-like cells
- Reagent: siRNA pool against human genes, 50 nM
- Duration: LPS for 4 h, given about 3 days after siRNA transfection
- Conditions: bacterial LPS (TLR4 ligand), 10 ng/ml
- Measurement: 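TNF firefly reporter luminescence divided by renilla, normalised to the plate median, then turned into a robust z-score for each replicate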
- Reading the numbers: TNF reporter robust z-score: higher = stronger TNF reporter response to LPS
- Active means: 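Each well counts as active if its z-score is over 2.8 or under -1.5; controls are left without a call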
Here is an unselected part of about 18,000 reagents tested. About 2,900 of them (16%) count as active. 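Calls are made per well; low scores hint the gene aids the LPS response, high scores that it dampens it.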 A number with no mark means an inactive call. Repeated entries: four replicate wells of each siRNA pool.

no.	target	TNF reporter robust z-score
1	KRT33A (keratin 33A)	1.46
2	KRT33A (keratin 33A)	2.08
3	KRT33A (keratin 33A)	1.93
4	KRT33A (keratin 33A)	1.56
5	GAP43 (growth associated protein 43)	-0.26
6	GAP43 (growth associated protein 43)	-0.25
7	GAP43 (growth associated protein 43)	-0.41
8	GAP43 (growth associated protein 43)	-0.36
9	MEFV (MEFV innate immunity regulator, pyrin)	-1.33
10	MEFV (MEFV innate immunity regulator, pyrin)	-1.46
11	MEFV (MEFV innate immunity regulator, pyrin)	-0.2
12	MEFV (MEFV innate immunity regulator, pyrin)	-1
13	WDR83 (WD repeat domain 83)	0.32
14	WDR83 (WD repeat domain 83)	3.54 (active)
15	WDR83 (WD repeat domain 83)	-0.01
16	WDR83 (WD repeat domain 83)	3.87 (active)
17	KIAA1958	2.02
18	KIAA1958	1.62
19	KIAA1958	0.58
20	KIAA1958	2.22
21	CYP21A2 (cytochrome P450 family 21 subfamily A member 2)	-0.44
22	CYP21A2 (cytochrome P450 family 21 subfamily A member 2)	-1.2
23	CYP21A2 (cytochrome P450 family 21 subfamily A member 2)	-1.14
24	CYP21A2 (cytochrome P450 family 21 subfamily A member 2)	-0.8
25	PPP6R1 (protein phosphatase 6 regulatory subunit 1)	-0.05
26	PPP6R1 (protein phosphatase 6 regulatory subunit 1)	-0.21
27	PPP6R1 (protein phosphatase 6 regulatory subunit 1)	-0.24
28	PPP6R1 (protein phosphatase 6 regulatory subunit 1)	-0.47
29	OCA2 (OCA2 melanosomal transmembrane protein)	-0.88
30	OCA2 (OCA2 melanosomal transmembrane protein)	-0.31
31	OCA2 (OCA2 melanosomal transmembrane protein)	-0.35
32	OCA2 (OCA2 melanosomal transmembrane protein)	0.09
33	MPHOSPH6 (M-phase phosphoprotein 6)	0.58
34	MPHOSPH6 (M-phase phosphoprotein 6)	-0.14
35	MPHOSPH6 (M-phase phosphoprotein 6)	0.75
36	MPHOSPH6 (M-phase phosphoprotein 6)	2.24
37	DLK1 (delta like non-canonical Notch ligand 1)	0.37
38	DLK1 (delta like non-canonical Notch ligand 1)	0.71
39	DLK1 (delta like non-canonical Notch ligand 1)	0.45
40	DLK1 (delta like non-canonical Notch ligand 1)	1.02
41	CCDC102A (coiled-coil domain containing 102A)	-1.39
42	CCDC102A (coiled-coil domain containing 102A)	-0.9
43	CCDC102A (coiled-coil domain containing 102A)	-0.86
44	CCDC102A (coiled-coil domain containing 102A)	-0.19
45	PRORP (protein only RNase P catalytic subunit)	0.4
46	PRORP (protein only RNase P catalytic subunit)	0.94
47	PRORP (protein only RNase P catalytic subunit)	0.12
48	PRORP (protein only RNase P catalytic subunit)	0.9
49	ZNF200 (zinc finger protein 200)	-1.05
50	ZNF200 (zinc finger protein 200)	-1.19
51	ZNF200 (zinc finger protein 200)	-1.02
52	ZNF200 (zinc finger protein 200)	-0.91
53	FLOT1 (flotillin 1)	-0.41
54	FLOT1 (flotillin 1)	0.7
55	FLOT1 (flotillin 1)	0.17
56	FLOT1 (flotillin 1)	-0.46
57	SLA (Src like adaptor)	0.34
58	SLA (Src like adaptor)	-0.35
59	SLA (Src like adaptor)	0.08
60	SLA (Src like adaptor)	1.22
61	RGPD1 (RANBP2 like and GRIP domain containing 1)	-0.41
62	RGPD1 (RANBP2 like and GRIP domain containing 1)	-0.58
63	RGPD1 (RANBP2 like and GRIP domain containing 1)	-0.32
64	RGPD1 (RANBP2 like and GRIP domain containing 1)	-0.52
65	IFNL3 (interferon lambda 3)	-0.39
66	IFNL3 (interferon lambda 3)	0.3
67	IFNL3 (interferon lambda 3)	0.14
68	IFNL3 (interferon lambda 3)	-0.35
69	HGF (hepatocyte growth factor)	1.92
70	HGF (hepatocyte growth factor)	0.27
71	HGF (hepatocyte growth factor)	1.68
72	HGF (hepatocyte growth factor)	0.6
73	HSPA13 (heat shock protein family A (Hsp70) member 13)	-1.41
74	HSPA13 (heat shock protein family A (Hsp70) member 13)	-1.26
75	HSPA13 (heat shock protein family A (Hsp70) member 13)	-1.21
76	HSPA13 (heat shock protein family A (Hsp70) member 13)	-1.29
77	OVOL2 (ovo like zinc finger 2)	-1.16
78	OVOL2 (ovo like zinc finger 2)	0.18
79	OVOL2 (ovo like zinc finger 2)	-0.05
80	OVOL2 (ovo like zinc finger 2)	-0.85
81	CES4A (carboxylesterase 4A)	-1.24
82	CES4A (carboxylesterase 4A)	-1.01
83	CES4A (carboxylesterase 4A)	-1.22
84	CES4A (carboxylesterase 4A)	-1.02
85	SERPINB5 (serpin family B member 5)	-0.21
86	SERPINB5 (serpin family B member 5)	0.5
87	SERPINB5 (serpin family B member 5)	-0.42
88	SERPINB5 (serpin family B member 5)	-0.44
89	SEC61G (SEC61 translocon subunit gamma)	2.08
90	SEC61G (SEC61 translocon subunit gamma)	0.19
91	SEC61G (SEC61 translocon subunit gamma)	2.52
92	SEC61G (SEC61 translocon subunit gamma)	0.12
93	OR10A4 (olfactory receptor family 10 subfamily A member 4)	1
94	OR10A4 (olfactory receptor family 10 subfamily A member 4)	0.07
95	OR10A4 (olfactory receptor family 10 subfamily A member 4)	-0.99
96	OR10A4 (olfactory receptor family 10 subfamily A member 4)	-1.01
97	MTM1 (myotubularin 1)	1.44
98	MTM1 (myotubularin 1)	-0.08
99	MTM1 (myotubularin 1)	-0.38
100	MTM1 (myotubularin 1)	0.55
101	LINC02145 (long independently transcribed non-coding RNA 2145)	1.44
102	LINC02145 (long independently transcribed non-coding RNA 2145)	0.34
103	LINC02145 (long independently transcribed non-coding RNA 2145)	1.43
104	LINC02145 (long independently transcribed non-coding RNA 2145)	-0.05
105	OR4E2 (olfactory receptor family 4 subfamily E member 2)	-0.99
106	OR4E2 (olfactory receptor family 4 subfamily E member 2)	-1.14
107	OR4E2 (olfactory receptor family 4 subfamily E member 2)	-0.52
108	OR4E2 (olfactory receptor family 4 subfamily E member 2)	-0.02
109	METTL3	1.58
110	METTL3	2.15
111	METTL3	2.09
112	METTL3	3.92 (active)

Already shown: entries from further up.
no.	target	TNF reporter robust z-score
98	MTM1 (myotubularin 1)	-0.08
99	MTM1 (myotubularin 1)	-0.38
100	MTM1 (myotubularin 1)	0.55
101	LINC02145 (long independently transcribed non-coding RNA 2145)	1.44
102	LINC02145 (long independently transcribed non-coding RNA 2145)	0.34
103	LINC02145 (long independently transcribed non-coding RNA 2145)	1.43
104	LINC02145 (long independently transcribed non-coding RNA 2145)	-0.05
105	OR4E2 (olfactory receptor family 4 subfamily E member 2)	-0.99
106	OR4E2 (olfactory receptor family 4 subfamily E member 2)	-1.14
107	OR4E2 (olfactory receptor family 4 subfamily E member 2)	-0.52
108	OR4E2 (olfactory receptor family 4 subfamily E member 2)	-0.02
